Assay results published in article doi:10.1101/2021.05.23.445298.
Read-outs that look alike come from different tables or passages of the source. No constants are given. Whether binding was seen depends on the method and setting. Some results given as binding are weak or reduced against the parent protein; the word gives no strength.

Protein sequences, listed by entry. Tags and fused reporters are not part of them. Residues count along the entry.
UniProt P21513, whole entry: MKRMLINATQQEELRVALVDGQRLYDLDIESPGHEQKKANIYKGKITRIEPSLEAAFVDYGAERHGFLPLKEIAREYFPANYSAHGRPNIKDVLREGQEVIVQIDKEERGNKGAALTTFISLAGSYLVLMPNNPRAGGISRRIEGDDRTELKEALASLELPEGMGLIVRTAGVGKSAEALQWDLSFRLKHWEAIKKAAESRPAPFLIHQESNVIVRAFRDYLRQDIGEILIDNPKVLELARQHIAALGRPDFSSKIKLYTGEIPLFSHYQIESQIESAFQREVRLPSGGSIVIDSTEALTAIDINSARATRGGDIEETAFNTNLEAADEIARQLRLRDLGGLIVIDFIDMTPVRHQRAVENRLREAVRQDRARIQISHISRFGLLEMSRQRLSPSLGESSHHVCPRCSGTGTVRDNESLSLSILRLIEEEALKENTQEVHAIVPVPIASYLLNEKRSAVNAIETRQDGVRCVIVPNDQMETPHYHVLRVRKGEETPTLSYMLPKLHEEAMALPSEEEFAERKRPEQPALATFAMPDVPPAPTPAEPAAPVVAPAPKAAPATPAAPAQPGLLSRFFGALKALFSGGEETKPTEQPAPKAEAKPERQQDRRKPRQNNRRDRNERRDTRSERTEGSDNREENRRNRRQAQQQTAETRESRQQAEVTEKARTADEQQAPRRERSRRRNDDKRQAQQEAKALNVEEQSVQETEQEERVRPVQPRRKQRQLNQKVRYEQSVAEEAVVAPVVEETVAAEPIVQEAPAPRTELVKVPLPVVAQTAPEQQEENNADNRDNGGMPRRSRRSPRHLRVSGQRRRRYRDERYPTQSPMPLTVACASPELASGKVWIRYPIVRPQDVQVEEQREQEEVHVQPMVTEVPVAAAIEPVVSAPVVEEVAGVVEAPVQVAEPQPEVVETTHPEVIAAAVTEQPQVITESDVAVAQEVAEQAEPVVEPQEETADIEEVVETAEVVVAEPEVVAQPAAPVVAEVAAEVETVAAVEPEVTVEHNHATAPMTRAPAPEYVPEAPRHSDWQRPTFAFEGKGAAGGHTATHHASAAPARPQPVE
UniProt P21513, 1-850: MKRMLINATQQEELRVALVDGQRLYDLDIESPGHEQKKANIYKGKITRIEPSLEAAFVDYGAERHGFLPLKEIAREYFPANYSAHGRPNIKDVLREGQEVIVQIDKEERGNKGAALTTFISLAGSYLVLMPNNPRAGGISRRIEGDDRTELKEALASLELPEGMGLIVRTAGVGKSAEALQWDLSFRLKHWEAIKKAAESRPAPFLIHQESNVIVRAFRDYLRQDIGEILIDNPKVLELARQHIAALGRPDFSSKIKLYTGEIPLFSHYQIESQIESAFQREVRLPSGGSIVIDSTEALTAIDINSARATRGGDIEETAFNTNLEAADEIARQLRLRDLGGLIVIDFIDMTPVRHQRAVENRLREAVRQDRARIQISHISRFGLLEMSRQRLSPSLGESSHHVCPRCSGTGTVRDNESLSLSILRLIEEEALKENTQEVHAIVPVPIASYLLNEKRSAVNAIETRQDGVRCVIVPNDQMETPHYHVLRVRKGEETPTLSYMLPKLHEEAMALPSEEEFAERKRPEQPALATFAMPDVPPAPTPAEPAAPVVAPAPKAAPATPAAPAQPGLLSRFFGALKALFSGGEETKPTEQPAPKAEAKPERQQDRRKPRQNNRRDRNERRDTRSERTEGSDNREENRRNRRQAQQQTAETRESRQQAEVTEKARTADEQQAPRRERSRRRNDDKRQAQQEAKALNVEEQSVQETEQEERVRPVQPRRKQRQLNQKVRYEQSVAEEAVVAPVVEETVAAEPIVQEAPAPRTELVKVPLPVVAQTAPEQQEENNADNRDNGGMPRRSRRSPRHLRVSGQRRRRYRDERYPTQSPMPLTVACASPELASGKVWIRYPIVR
UniProt P0A6P9, whole entry: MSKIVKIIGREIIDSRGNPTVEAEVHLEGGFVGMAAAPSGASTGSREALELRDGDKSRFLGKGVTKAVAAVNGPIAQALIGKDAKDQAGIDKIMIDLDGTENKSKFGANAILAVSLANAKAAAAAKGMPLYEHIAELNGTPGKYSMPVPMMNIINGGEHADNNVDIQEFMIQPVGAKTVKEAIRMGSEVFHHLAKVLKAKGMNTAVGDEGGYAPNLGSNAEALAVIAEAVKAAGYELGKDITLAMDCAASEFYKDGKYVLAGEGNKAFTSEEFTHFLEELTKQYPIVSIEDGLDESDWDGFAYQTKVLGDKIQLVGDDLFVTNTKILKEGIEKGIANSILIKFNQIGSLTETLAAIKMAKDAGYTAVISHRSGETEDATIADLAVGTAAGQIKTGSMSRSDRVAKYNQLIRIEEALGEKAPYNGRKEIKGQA

Tests used:
Test in all cases: co-purification
[1] = molecular target: RNase E 1-850 (Escherichia coli) (UniProt P21513)
[2] = molecular target: RNase E 1-1061, chromosomally strep-tagged (Escherichia coli (endogenous in NCM3416)) (UniProt P21513)
[3] = molecular target: RNase E 1-1061, chromosomally strep-tagged (Escherichia coli (endogenous in NCM3416)) (UniProt P21513); remark: listed apart in the source

Question: How did the binding [1] turn out when “enolase (full-length, recombinant) (from UniProt P0A6P9 1-432) (enzyme)” was run?
Answer: binds

Question: How did the binding [2] turn out when “enolase (endogenous, full degradosome) (from UniProt P0A6P9 1-432) (enzyme)” was run?
Answer: binds

B1: PNPase (endogenous, full degradosome) (enzyme, UniProt P05055 1-711)
chain: MLNPIVRKFQYGQHTVTLETGMMARQATAAVMVSMDDTAVFVTVVGQKKAKPGQDFFPLTVNYQERTYAAGRIPGSFFRREGRPSEGETLIARLIDRPIRPLFPEGFVNEVQVIATVVSVNPQVNPDIVAMIGASAALSLSGIPFNGPIGAARVGYINDQYVLNPTQDELKESKLDLVVAGTEAAVLMVESEAQLLSEDQMLGAVVFGHEQQQVVIQNINELVKEAGKPRWDWQPEPVNEALNARVAALAEARLSDAYRITDKQERYAQVDVIKSETIATLLAEDETLDENELGEILHAIEKNVVRSRVLAGEPRIDGREKDMIRGLDVRTGVLPRTHGSALFTRGETQALVTATLGTARDAQVLDELMGERTDTFLFHYNFPPYSVGETGMVGSPKRREIGHGRLAKRGVLAVMPDMDKFPYTVRVVSEITESNGSSSMASVCGASLALMDAGVPIKAAVAGIAMGLVKEGDNYVVLSDILGDEDHLGDMDFKVAGSRDGISALQMDIKIEGITKEIMQVALNQAKGARLHILGVMEQAINAPRGDISEFAPRIHTIKINPDKIKDVIGKGGSVIRALTEETGTTIEIEDDGTVKIAATDGEKAKHAIRRIEEITAEIEVGRVYTGKVTRIVDFGAFVAIGGGKEGLVHISQIADKRVEKVTDYLQMGQEVPVKVLEVDRQGRIRLSIKEATEQSQPAAAPEAPAAEQGE
Question: How did the binding [3] turn out when B1 was run?
Answer: binds
